One molecule from patent US20160002338A1 (Hoffmann-La Roche, published 2016) can be followed below.

The assay deals with T1, TtSlyD-FKBP-Her3.
T1 sequence: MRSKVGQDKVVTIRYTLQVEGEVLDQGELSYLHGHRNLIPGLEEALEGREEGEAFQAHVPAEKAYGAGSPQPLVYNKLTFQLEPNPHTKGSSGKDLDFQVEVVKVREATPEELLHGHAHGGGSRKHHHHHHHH
The experiment in a line: SPR kinetic screening. (In general: Surface plasmon resonance follows binding to a sensor surface in real time, without labels.)

No constants are given. Whether binding was seen depends on the method and setting. Some results given as binding are weak or reduced against the parent protein; the word gives no strength.

B1: anti-HER3/HER4 antibody M-05-74 (antibody, V domains shown)
VH: QVQLQQSGAELAKPGASVKMSCKTSGYTLTDYWIHWVKQRPGQGLEWIGYINPYTGYTESNQKFKDKATLTADKSSNTAYIQLSSLTSEDSAVYYCARPYYYGDYWGQGTTLTVSS
VL: QIVLTQSPAIMSASPGERVTITCSASSSVSYMHWFQQKPGTSPKLLIYSTSNLASGVPARFSGSGSGTSYSLTISRMEAEDAATYYCQQRSSYPFTFGSGTKLEIK
notes: murine monoclonal antibody from hybridoma (supernatant or purified); also called M-074; M-5-74
Regarding B1, the binding entry is on record as “binds”.
